# Data from patent US20190194309A1 (AGENCY FOR SCIENCE TECHNOLOGY AND RESEARCH, published 2019).
# By UniProt entry, the sequences of proteins in these tests, tags left out. Residues count along the entry.
# UniProt Q04912, residues 25-1400: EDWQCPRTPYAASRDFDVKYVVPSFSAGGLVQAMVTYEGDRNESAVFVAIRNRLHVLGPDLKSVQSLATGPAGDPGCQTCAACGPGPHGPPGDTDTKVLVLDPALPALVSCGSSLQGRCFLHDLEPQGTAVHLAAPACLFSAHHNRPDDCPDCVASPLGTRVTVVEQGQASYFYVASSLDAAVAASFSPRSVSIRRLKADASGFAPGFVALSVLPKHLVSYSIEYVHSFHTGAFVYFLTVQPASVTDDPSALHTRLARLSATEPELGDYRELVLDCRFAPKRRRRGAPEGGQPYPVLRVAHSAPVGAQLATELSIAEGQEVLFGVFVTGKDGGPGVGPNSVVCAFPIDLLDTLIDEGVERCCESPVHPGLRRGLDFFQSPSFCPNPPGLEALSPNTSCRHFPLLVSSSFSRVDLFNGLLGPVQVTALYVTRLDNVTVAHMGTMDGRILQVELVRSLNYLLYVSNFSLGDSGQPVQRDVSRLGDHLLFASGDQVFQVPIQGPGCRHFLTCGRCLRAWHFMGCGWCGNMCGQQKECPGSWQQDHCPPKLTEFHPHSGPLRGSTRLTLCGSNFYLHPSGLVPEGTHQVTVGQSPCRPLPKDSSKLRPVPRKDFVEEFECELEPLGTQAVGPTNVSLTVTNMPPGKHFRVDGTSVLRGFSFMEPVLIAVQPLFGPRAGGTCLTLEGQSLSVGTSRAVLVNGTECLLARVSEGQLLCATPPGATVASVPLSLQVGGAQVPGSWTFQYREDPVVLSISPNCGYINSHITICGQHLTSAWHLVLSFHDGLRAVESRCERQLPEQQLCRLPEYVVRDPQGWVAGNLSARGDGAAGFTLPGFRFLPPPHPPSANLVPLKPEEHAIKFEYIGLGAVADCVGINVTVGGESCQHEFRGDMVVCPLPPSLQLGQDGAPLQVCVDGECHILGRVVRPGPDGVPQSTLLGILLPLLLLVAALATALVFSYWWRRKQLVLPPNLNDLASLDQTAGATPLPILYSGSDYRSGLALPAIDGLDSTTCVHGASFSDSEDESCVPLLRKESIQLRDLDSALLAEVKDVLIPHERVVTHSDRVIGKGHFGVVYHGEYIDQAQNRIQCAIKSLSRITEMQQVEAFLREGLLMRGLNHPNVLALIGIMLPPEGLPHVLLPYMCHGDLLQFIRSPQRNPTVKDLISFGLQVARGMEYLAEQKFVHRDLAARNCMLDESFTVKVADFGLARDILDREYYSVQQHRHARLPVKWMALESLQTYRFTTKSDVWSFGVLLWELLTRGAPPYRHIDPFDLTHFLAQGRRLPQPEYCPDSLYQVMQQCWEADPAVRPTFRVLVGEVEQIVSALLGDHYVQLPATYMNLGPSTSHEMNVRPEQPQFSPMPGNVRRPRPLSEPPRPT
# No constants are given. Whether binding was seen depends on the method and setting. Some results given as binding are weak or reduced against the parent protein; the word gives no strength.
# Tests used:
# [1] = target: Macrophage stimulating protein receptor (RON - Recepteur d' Origine Nantais), human (human) (UniProt Q04912); experiment: immunofluorescence on RON transfected H1299 cells
# [2] = target: Macrophage stimulating protein receptor (RON - Recepteur d' Origine Nantais), human (human) (UniProt Q04912); experiment: Western blot of cell line lysates
# [3] = target: Macrophage stimulating protein receptor (RON - Recepteur d' Origine Nantais), human (human) (UniProt Q04912); experiment: immunofluorescence on live cells (endocytosis)
binding [1],binding [2],binding [3],Binder
binds,,,"3E1 (antibody, V domains shown) VH: DVMLVESGGGLVQPGGSMKLSCVASGFSFSDYWMNWVRQSPEKGLEWVAEIRLKSSNYATHYAESVKGRFTISRDDSESSVYLQMNNLRPEDTGFYYCTRGDYWGQGTSVTVSS VL: DIVMTQSPATLSVTPGDGVSLSCRASQSINNNLHWYQQKSHESPRLLIKFASQSISGIPSRFSGSGSGTDFTLSINSVETEDFGMYFCQQSNSWPLTFGAGTKLELK"
binds,binds,,"6E6 (antibody, V domains shown) VH: EVKLQQSGTVLARPGTSVKMSCKASGYIFTSYWMHWIKERPGQGLEWIGAIYPGNNDTSTNQKFKGKAKLTAVTSTSTAYLELSSLTNEDSAVYYCTRDGFYPFAYWGQGTLVTVSA VL: DIVLTQTPLSLPVSLGDQASISCRSSQSLVYINGDTYFHWYLQKPGQSPKLLIYRVSNRFSGVPDRFSGSGSGTDFTLKISRVEAEDLGVYFCSQTKHVPYTFGGGTKLEMK"
binds,binds,,"3G4 (antibody, V domains shown) VH: EVQLEESGTVLARPGASVKMSCKASGYIFTSYWMHWIKQRPGQGLEWIGAIYPGNSDTSTNQKFKDKAKLTAVTSTSTAYLELSSLTNEDSAVFYCTRDGYYPFAYWGQGTLVTVSA VL: DIVLTQSPLSLPVSLGDQASISCRSSQSLVYINGDTYFHWYLQKPGQSPKLLIYRVSNRFSGVPDRFSGSGSGTDFTLKISRVEAEDLGVYFCSQTKHVPYTFGGGTKLEMK"
binds,,,"5B9 (antibody, V domains shown) VH: EVQLQQPGAELVRPGSSVKISCKASGYEFSKYWMNWVKQRPGQGLEWIGQIFPGDGDINYNGKFKGKATLTADKSSSTAYMQLSSLTSEESAVYFCARWYYGSNYAMDYWGQGTSVTVSS VL: DIVMTQTPSSLAVSVGEKITMSCKSSQSLLYSSNQKNYLAWYQQKPGQSPKLLIYWASTRESGVPDRFTGSGSGTDFTLTISSVKAEDLAVYYCQQYYAYRTFGGGTKLEIK"
binds,,binds,"5A5 (antibody, V domains shown) VH: LEVKLEQSGPGLVKPSQSLSLTCTVTDYSITSDYAWNWIRQFPGNKLEWMGYILYSGSTTYNPSLKSRVSITRDTSKNQFFLHLDSVTTEDAATYYCASLGRGGSWGQGTTLAVSS VL: DILMTQTPLSLPVSLGDQASISCRSSQSIVHSNGNTYLEWYLQKPGQSPKLLIYKVSNRFSGVPDRFTGSGSGTDFTLKISRVEAEDLGIYYCFQGSHAPWTFGGGTKLEIR"
